{
  "source": "patent US7842280B2",
  "about": "(Case Western Reserve University, priority 2006, dated 2010)",
  "assay": "general procedure: Fmoc solid-phase peptide synthesis; Wang resin (aminoDOTA-loaded Wang resin; Fluka Wang resin 0.75 mmol/g); HBTU/HOBt",
  "conditions": "conjugation step, by weight",
  "data": [
    {"substance": "Ac-PLGMWSG-DOTA", "values": [
      {"measurement": "conjugation yield", "result": 71, "unit": "% by weight"}
    ]}
  ]
}
